Sequences of proteins named here, by UniProt entry; tags and fusion partners are left off. A change or cut given only in a name is not applied to a line headed by its entry.
UniProt A5YKK6, whole entry: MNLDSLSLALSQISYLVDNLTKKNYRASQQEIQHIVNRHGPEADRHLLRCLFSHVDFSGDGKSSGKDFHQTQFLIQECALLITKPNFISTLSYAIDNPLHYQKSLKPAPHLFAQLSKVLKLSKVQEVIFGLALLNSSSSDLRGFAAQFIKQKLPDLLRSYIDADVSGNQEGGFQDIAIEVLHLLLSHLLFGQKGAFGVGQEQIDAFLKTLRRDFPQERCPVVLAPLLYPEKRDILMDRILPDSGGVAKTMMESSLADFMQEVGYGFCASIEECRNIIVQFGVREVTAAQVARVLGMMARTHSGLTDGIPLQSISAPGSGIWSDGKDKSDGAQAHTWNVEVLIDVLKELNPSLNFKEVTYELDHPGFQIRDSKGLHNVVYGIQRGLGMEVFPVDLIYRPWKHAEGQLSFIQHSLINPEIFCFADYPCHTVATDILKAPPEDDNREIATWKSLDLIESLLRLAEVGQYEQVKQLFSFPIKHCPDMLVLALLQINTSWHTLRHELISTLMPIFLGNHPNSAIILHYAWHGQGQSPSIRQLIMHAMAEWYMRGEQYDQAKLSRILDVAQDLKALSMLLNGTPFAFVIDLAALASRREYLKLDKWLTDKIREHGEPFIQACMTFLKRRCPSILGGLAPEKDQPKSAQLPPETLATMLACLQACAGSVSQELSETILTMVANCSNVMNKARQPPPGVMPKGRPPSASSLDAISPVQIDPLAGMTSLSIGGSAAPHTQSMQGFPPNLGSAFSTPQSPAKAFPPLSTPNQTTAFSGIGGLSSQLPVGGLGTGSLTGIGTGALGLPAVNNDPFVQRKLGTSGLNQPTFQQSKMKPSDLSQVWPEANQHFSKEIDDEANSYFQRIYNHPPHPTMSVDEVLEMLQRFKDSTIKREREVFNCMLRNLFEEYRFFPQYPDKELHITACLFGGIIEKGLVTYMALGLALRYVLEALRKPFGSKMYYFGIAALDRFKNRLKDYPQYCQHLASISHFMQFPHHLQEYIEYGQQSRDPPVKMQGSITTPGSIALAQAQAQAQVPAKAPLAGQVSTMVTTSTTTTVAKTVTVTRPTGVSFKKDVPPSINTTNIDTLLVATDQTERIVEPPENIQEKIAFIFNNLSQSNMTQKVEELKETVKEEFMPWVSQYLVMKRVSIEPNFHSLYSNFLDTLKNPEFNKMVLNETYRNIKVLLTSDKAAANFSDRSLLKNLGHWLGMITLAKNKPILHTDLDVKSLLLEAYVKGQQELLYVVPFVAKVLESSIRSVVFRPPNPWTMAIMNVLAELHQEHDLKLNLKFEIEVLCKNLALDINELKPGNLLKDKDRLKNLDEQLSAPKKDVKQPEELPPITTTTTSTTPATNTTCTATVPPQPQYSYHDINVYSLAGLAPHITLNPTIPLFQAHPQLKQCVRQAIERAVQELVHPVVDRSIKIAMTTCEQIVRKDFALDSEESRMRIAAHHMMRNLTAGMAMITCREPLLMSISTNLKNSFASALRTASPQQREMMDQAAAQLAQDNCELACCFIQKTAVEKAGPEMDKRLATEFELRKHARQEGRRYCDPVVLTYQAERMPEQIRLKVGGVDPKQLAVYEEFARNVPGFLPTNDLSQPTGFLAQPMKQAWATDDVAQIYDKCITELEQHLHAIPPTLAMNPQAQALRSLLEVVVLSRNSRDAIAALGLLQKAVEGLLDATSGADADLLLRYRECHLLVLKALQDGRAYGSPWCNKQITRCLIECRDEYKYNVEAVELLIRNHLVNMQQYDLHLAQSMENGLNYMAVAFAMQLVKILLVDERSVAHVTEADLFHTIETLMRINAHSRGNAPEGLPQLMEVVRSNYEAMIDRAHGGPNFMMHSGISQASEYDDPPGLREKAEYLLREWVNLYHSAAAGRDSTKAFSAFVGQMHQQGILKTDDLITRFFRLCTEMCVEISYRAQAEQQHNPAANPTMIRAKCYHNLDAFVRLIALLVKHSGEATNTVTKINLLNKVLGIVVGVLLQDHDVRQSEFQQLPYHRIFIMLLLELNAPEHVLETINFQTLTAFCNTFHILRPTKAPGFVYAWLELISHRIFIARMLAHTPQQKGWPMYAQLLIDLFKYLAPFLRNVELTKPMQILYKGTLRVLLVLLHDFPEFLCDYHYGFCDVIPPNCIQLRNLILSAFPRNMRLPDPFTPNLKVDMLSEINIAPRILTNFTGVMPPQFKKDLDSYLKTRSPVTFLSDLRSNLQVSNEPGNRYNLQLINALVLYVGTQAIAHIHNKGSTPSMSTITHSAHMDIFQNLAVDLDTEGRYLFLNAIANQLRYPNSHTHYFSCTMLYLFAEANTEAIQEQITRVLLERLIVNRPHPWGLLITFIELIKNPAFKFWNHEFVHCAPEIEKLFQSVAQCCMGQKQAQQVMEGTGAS
UniProt A0JLT2: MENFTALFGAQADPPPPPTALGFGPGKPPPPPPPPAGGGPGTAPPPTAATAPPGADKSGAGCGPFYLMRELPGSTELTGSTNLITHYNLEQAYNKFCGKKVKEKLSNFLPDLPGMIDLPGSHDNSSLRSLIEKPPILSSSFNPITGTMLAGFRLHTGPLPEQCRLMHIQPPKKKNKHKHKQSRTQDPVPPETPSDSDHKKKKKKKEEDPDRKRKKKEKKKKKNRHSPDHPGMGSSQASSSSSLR
UniProt A0FGR8: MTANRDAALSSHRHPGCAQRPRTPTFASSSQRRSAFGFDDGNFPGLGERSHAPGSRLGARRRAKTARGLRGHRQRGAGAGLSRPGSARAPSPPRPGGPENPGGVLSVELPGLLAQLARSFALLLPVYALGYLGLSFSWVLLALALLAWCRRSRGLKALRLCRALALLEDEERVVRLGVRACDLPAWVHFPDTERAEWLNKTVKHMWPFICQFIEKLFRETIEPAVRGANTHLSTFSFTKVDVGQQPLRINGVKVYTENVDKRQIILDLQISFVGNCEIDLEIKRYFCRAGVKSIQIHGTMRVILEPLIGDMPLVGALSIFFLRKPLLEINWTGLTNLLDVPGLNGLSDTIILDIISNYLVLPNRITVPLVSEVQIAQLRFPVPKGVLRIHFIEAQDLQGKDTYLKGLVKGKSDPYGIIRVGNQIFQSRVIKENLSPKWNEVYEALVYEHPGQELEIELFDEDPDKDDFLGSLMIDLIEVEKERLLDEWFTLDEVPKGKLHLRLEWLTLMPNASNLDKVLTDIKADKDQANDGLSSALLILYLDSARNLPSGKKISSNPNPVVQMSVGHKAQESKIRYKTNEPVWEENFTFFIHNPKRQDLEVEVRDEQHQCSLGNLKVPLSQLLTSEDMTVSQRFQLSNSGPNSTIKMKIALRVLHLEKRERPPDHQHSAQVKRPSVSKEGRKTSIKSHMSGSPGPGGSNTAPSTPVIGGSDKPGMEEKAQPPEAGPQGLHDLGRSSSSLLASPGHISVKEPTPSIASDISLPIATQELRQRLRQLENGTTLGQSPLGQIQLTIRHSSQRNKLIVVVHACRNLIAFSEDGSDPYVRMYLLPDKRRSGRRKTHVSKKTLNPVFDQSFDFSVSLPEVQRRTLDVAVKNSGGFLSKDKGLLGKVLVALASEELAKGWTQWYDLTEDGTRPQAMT
UniProt A6NDB9: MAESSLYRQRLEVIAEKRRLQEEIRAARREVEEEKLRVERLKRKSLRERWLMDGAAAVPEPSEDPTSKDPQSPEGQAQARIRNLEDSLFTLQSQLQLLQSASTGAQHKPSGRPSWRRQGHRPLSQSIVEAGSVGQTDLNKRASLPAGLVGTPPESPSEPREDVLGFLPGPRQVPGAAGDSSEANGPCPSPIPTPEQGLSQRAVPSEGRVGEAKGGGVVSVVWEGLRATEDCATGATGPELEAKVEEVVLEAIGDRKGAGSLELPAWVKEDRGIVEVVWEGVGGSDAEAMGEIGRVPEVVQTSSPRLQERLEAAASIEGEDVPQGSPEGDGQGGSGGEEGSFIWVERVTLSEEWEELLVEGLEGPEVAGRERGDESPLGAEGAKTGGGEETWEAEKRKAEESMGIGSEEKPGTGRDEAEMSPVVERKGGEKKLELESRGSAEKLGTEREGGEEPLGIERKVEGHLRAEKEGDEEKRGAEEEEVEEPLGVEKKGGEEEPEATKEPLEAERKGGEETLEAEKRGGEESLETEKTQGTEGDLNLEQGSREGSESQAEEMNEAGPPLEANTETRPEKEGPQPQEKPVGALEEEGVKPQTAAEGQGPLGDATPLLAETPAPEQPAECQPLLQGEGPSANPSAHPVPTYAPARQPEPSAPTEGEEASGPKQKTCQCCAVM
UniProt A4D1P6: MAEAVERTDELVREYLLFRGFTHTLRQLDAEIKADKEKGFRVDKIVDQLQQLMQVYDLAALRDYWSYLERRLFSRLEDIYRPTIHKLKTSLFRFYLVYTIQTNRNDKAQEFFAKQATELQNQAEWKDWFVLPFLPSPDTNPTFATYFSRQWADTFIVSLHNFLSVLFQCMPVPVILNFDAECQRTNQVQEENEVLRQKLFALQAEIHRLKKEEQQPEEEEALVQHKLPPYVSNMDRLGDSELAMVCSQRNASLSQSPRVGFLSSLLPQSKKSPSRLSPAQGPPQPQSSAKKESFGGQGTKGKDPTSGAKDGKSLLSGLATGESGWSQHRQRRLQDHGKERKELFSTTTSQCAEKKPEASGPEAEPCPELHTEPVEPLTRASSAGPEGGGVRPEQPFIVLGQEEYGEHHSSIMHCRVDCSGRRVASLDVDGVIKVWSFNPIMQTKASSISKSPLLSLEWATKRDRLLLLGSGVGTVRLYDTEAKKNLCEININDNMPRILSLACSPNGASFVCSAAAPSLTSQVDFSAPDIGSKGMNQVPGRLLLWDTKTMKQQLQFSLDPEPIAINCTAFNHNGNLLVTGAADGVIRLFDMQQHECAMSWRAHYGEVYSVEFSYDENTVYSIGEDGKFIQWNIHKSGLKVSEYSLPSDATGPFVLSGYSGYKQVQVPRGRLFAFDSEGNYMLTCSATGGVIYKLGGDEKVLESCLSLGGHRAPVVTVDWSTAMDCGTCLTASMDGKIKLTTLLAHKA
UniProt A2A3K4: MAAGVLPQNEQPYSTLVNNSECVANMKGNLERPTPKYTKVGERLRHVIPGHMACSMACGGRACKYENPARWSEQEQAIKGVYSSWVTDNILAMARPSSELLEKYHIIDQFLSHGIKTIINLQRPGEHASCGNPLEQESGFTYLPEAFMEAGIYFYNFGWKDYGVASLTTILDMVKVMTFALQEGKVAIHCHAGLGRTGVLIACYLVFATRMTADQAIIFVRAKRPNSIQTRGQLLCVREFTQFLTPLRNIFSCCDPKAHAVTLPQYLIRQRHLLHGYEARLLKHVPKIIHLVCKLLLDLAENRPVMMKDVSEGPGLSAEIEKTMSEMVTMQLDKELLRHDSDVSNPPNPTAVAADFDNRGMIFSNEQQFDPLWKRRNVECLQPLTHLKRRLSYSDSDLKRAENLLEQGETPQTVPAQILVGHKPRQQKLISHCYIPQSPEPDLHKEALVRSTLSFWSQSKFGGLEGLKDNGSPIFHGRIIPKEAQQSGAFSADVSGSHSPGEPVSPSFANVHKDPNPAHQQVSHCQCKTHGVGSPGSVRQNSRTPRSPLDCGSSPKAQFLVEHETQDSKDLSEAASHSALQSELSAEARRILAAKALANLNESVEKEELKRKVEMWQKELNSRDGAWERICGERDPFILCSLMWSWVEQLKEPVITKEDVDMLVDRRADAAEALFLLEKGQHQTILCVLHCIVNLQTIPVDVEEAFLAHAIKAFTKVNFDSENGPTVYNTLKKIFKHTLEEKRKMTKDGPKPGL
UniProt A5D8V6: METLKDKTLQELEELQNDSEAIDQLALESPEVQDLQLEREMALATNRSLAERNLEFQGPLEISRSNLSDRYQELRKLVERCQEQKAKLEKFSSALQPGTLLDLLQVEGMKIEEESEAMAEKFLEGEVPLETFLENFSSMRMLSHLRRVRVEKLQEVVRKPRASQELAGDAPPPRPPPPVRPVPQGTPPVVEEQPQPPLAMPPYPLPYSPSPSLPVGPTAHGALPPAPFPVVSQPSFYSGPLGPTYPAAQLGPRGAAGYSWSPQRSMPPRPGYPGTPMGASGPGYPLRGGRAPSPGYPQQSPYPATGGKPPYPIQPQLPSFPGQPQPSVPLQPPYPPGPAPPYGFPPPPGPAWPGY
UniProt A4D1E9: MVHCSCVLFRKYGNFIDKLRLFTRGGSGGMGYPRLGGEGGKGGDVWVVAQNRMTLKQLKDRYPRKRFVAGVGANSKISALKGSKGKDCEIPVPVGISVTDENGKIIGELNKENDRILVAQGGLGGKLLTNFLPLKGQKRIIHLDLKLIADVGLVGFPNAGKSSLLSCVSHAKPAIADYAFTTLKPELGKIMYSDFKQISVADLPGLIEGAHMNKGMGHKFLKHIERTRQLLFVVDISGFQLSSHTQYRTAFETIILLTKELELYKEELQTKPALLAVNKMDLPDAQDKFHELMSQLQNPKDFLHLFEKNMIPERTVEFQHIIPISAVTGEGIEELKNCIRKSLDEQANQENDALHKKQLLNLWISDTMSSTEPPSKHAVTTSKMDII

This is one part of the list. Small differences around the control level are noise.
The targets below were run with CN[C@@H]1C[C@H]2O[C@@](C)([C@@H]1OC)n1c3ccccc3c3c4c(c5c6ccccc6n2c5c31)C(=O)NC4 [staurosporine] (assay: log2 fold change of tryptic peptide abundance, ligand vs vehicle (limited proteolysis) (log2 ratio); higher = more trypsin-susceptible (destabilized)). Details: ligand concentration: 20 uM; sample: K562 cleared lysate; digestion: 4 min, 22 C (HT-PELSA RT4min, Orbitrap Astral).
“CNOT1 (peptide sequence: YRECHLLVLK, peptide start residue: 1684) (UniProt A5YKK6)” was tested, and the log2 fold change was -0.142.
In the case of “A0A590UK10 (peptide sequence: ALQEELQFSSK, peptide start residue: 476)”, the log2 fold change is reported as -0.655.
“A0A3B3IU46 (peptide sequence: SNQWHGR, peptide start residue: 79), A0A3B3IU46” was tested, and the log2 fold change was -0.192.
Target “SBNO1 (peptide sequence: DSPCKENK, peptide start residue: 696) (UniProt A3KN83)” has a log2 fold change of 0.633.
Target “A0A8I5KQN6 (peptide sequence: EQEEKIR, peptide start residue: 268)” has a log2 fold change of 0.303.
“A0AV96 (peptide sequence: GFAFVEYESHR, peptide start residue: 195)” was tested, and the log2 fold change was -0.152.
Work on “KRBA1 (peptide sequence: SHSEEATREPVLPLGLQSCVR, peptide start residue: 430) (UniProt A5PL33)” yielded a log2 fold change of -0.432.
“MED19 (peptide sequence: LHTGPLPEQCR, peptide start residue: 154) (UniProt A0JLT2)” was tested, and the log2 fold change was -0.122.
“A0A1B0GUS4 (peptide sequence: IYHPNIDEK, peptide start residue: 74), A0A1B0GUS4” showed a log2 fold change of 0.134.
“A0A7P0TAN4 (peptide sequence: TFSQTSSLVGHR, peptide start residue: 323)” was tested, and the log2 fold change was 0.31.
Work on “UniProt A0FGR8 (peptide sequence: ALALLEDEER, peptide start residue: 163)” yielded a log2 fold change of -0.134.
“PALM3 (peptide sequence: GGGVVSVVWEGLR, peptide start residue: 214) (UniProt A6NDB9)” gave a log2 fold change of 0.414.
In the case of “UniProt A1L4K1 (peptide sequence: HTFASSRHK, peptide start residue: 660)”, the log2 fold change is reported as 0.108.
In the case of “CCDC66 (peptide sequence: TNELFQTMQR, peptide start residue: 529) (UniProt A2RUB6)”, the log2 fold change is reported as 0.475.
In the case of “WDR91 (peptide sequence: LPPYVSNMDR, peptide start residue: 227) (UniProt A4D1P6)”, the log2 fold change is reported as 0.133.
In the case of “A0A2R8Y4L2 (peptide sequence: GFAFVTFDDHDSVDKIVIQK, peptide start residue: 147), A0A2R8Y4L2”, the log2 fold change is reported as 0.287.
“A0AVF1 (peptide sequence: GVQHTDKR, peptide start residue: 13)” showed a log2 fold change of 0.517.
Work on “UniProt A5PLN9 (peptide sequence: LQTSQLQR, peptide start residue: 291)” yielded a log2 fold change of 0.114.
“UniProt A6NDY0 (peptide sequence: VTILCDKFSGHPK, peptide start residue: 201)” showed a log2 fold change of -0.0817.
“ILVBL (peptide sequence: DGHPVVVNILIGR, peptide start residue: 610) (UniProt A1L0T0)” was tested, and the log2 fold change was -0.191.
“UniProt A0MZ66 (peptide sequence: ISHMVIEEVNFMQNHLEIEK, peptide start residue: 58)” was tested, and the log2 fold change was 0.233.
With “A0A024RBG1 (peptide sequence: MKFKPNQTR, peptide start residue: 2), A0A024RBG1” the log2 fold change was 0.407.
In the case of “PTPDC1 (peptide sequence: HLLHGYEAR, peptide start residue: 272) (UniProt A2A3K4)”, the log2 fold change is reported as 0.924.
“VPS37C (peptide sequence: METLKDK, peptide start residue: 1) (UniProt A5D8V6)” showed a log2 fold change of 0.208.
With “GTPBP10 (peptide sequence: QISVADLPGLIEGAHMNK, peptide start residue: 197) (UniProt A4D1E9)” the log2 fold change was 0.311.
Target “A0A2Z4LIS9 (peptide sequence: AGSAMAIGGGGGSR, peptide start residue: 158), A0A2Z4LIS9” has a log2 fold change of -0.242.
“C5orf51 (peptide sequence: ENNMHPK, peptide start residue: 112) (UniProt A6NDU8)” showed a log2 fold change of 0.313.
Target “A0A1W2PR95 (peptide sequence: AREWDDWK, peptide start residue: 318), A0A1W2PR95” has a log2 fold change of -0.257.
“CPED1 (peptide sequence: NIEKPQVPFDAIENK, peptide start residue: 534) (UniProt A4D0V7)” showed a log2 fold change of 0.501.
For “UHRF1BP1L (peptide sequence: GISFMDYLSDKHLGK, peptide start residue: 960) (UniProt A0JNW5)”, the log2 fold change was -0.51.
